Results taken from paper PMC9440026.
Results are given in words; binding and its absence hold for the method and conditions named. Binding seen in cells or lysates may run through a third protein. Some entries that bind do so weakly or less than the wild type.

The chains behind the UniProt entries cited, without tags or fusion partners.
UniProt P60766: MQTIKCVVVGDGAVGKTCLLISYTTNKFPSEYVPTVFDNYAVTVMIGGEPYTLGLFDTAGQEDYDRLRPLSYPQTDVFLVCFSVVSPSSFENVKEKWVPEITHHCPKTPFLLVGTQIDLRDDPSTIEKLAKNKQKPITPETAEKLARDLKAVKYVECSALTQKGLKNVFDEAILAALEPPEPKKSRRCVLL
UniProt Q8BTI9: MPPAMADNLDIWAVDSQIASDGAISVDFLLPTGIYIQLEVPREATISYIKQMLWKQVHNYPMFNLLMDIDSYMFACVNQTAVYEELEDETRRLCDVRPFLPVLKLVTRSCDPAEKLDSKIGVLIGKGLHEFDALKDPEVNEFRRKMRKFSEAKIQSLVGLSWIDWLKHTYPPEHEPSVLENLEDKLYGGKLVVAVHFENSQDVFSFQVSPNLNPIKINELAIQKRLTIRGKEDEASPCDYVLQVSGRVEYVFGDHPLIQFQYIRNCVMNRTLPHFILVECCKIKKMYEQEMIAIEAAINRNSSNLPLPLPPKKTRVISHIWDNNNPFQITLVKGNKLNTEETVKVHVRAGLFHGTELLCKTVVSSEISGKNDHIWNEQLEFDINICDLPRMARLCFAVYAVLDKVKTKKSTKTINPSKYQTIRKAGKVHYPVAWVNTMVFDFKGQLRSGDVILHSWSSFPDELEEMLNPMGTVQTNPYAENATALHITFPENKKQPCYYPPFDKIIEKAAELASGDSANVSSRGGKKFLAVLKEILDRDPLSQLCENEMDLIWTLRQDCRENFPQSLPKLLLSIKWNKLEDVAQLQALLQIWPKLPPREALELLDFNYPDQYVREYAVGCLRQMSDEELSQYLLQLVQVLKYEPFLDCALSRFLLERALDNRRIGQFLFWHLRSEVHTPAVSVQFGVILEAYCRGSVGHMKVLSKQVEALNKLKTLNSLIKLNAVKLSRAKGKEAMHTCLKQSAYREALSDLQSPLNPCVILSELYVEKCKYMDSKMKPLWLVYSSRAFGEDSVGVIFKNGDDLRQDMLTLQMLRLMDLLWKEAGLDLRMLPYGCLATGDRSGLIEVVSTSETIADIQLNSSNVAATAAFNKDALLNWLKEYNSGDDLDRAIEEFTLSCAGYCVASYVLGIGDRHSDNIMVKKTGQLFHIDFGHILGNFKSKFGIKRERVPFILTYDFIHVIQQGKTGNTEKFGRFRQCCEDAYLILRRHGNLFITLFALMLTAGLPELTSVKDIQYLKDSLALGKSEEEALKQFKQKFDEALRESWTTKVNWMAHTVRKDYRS

Biological target: CDC42 (mouse (endogenous in oviductal organoids)) (UniProt P60766)
Experiment: co-IP; 500 μg whole-cell protein from differentiated oviductal organoids, 2 μg anti-CDC42 antibody overnight at 4 °C, Dynabeads Protein A 3 h at 4 °C, three washes; western blot for CDC42 and p110β; rabbit IgG as control immunoprecipitation

binding: binds
Substance: PI3 Kinase p110β (from UniProt Q8BTI9 1-1064)
